For the data set, the system named is native NMDA currents of cultured cortical neurons. Nature of the data set: Whole-cell patch-clamp of NMDA currents in cultured cortical neurons (DIV 6-8), spectral dependence of bound OptoNAM-3. The format is cell-based, mouse. The note with it: for % of trans in binding site: Fig. 5J; for % of cis in binding site: Figure 5E. Here is the method:
We then turned to native NMDA currents. We repeated these experiments on cultured cortical neurons at days in vitro [DIV] 6–8, a stage at which GluN2B-containing NMDARs form the major population of neuronal NMDARs.[48] On cortical neurons, 2 μM OptoNAM-3 induced 70% inhibition of NMDA-induced currents in the dark. The lower inhibitory effect of trans-OptoNAM-3 on neurons compared to HEK cells is most likely due to the mixture of NMDAR subtypes expressed in neurons.[48] […] This effect is furthermore partially reversible thanks to the use of 550 nm light.
Mice were housed in the IBENS rodent central facility duly accredited by the French Ministry of Agriculture. All experiments were performed in compliance with French and European regulations on care and protection of laboratory animals (EU Directive 2010/63, French Law 2013–118, February 6, 2013), and were approved by local ethics committees and by the French Ministry of Research and Innovation (authorization numbers #05137.02, APAFIS #28867-2020121814485893). Dissociated cultures of cortical neurons were prepared from mouse embryos at E18 as described previously.[84] After removing meninges, cortices were placed in ice-cold HBSS solution. Cell dissociation was performed individually for cortices of each embryo. Cortices were incubated in 2.5% trypsin at 37 °C for 7 min, rinsed three times with 37 °C phosphate buffer saline, and finally suspended in plating medium (Neurobasal Medium, supplemented with 0.5 mM L-glutamine, 1% B27 supplement, and penicillin/streptomycin). The neurons were further dissociated by trituration, and cells were plated on poly-D-lysine coated coverslips in 24-well culture dishes at a density of 3 × 10^5 cells per well for the excitotoxicity test and that of 1 × 10^5 cells per well for patch clamp experiments. Cultures were incubated at 37 °C in a humidified atmosphere of 5% CO2. Cells were fed by changing 1/2 medium to fresh Neurobasal medium every 4 days. For the excitotoxicity experiments, after 5 days in vitro, growth of non-neuronal cells was halted by a 24 h exposure to FDX ([…] 5-fluoro-2′-deoxyuridine). The cultures were used for experiments after 6 to 14 days in vitro (DIV6–8 for patch clamp experiments and DIV14 for excitotoxicity tests).
Whole-cell patch-clamp recordings on neurons were performed 6 to 8 days after the culturing step (DIV 6–8) using the same recording conditions as for HEK cells. Recordings were performed at a holding potential of −60 mV and at room temperature. Currents were elicited by NMDA (300 μM) and D-serine (50 μM) to specifically activate NMDARs.
OptoNAM-3 was perfused in the dark onto the patched neuron (Figure 5A–C). […] Stopping perfusion ensures that trans-OptoNAM coming from the perfusion tube […] with the wavelength PSS during the illumination procedure.
OptoNAM-3 was perfused in the dark onto the patched neuron (Figures 4G,H and 5F,H). […] Then, wavelengths from 435 to 580 nm were applied and the inhibition recovery was monitored.
For the trans to cis and cis to trans isomerization study in the binding site (Figure 5C,H respectively), we decided to normalize (scale) the inhibition values of OptoNAM-3 at different wavelengths by the inhibition induced by OptoNAM-3 at 365 nm and in the dark since these two conditions represent respectively the minimum and maximum of the inhibition. We followed this equation: [drawing 2] where m ∈ [r365,rdark] is the measurement (inhibition) to be scaled, r365 and rdark correspond to the minimum (365 nm state inhibition) and maximum (dark state inhibition) of the measurement, respectively, and t365 and tdark represent the minimum and maximum of the range (OptoNAM-3 365 nm PSS and dark PSS mean inhibition). To reduce the decreasing effect of normalization onto SEM, the SEMs represented in the figures were calculated with the data injected in the first part of the equation ( [drawing 3] ). […]

SMILES strings stand for the structures.

As to `c1ccc(/N=N/c2ccc(CCNc3ccncc3)cc2)cc1` [OptoNAM-3, (E)-N-(4-(Phenyldiazenyl)phenethyl)pyridin-4-amine], the “% of trans in binding site” value runs as follows: (365 nm) 10.32%; (435 nm) 10.43%; (460 nm) 11.07%; (490 nm) 23.70%; (525 nm) 23.06%; (550 nm) 39.11%. In addition, the “% of trans in binding site” value (580 nm) worked out at 27.15%. The “% of cis in binding site” value by setting is: (365 nm) 89.957%; (435 nm) 75.836%; (460 nm) 68.140%; (490 nm) 38.614%; (525 nm) 12.701%; (550 nm) 1.233%. Besides, for the setting “580 nm”, the “% of cis in binding site” value is listed as 0.801%.

For the origin of these results see article PMC11413854, “Reversible Control of Native GluN2B-Containing NMDA Receptors with Visible Light” (ACS Chemical Neuroscience, 2024).
